Source: patent US20260158153A1 (priority 2021, published 2026)

test: general procedure: solution-phase peptide synthesis; HATU / diisopropylethylamine; conditions: coupling step

Substance	step yield
di-tert-butyl (2S,5S,13S,14S,22S,25S)-13,14-bis(2,5-dioxo-2,5-dihydro-1H-pyrrol-1-yl)-2,25-dimethyl-4,7,12,15,20,23-hexaoxo-5,22-bis(31-oxo-2,5,8,11,14,17,20,23,26,29-decaoxa-32-azahexatriacontan-36-yl)-3,6,11,16,21,24-hexaazahexacosanedioate	88% yield
methyl (S, E)-37-((4-((2-((5-((R)-5-(tert-butoxy)-2-((tert-butoxycarbonyl)amino)-5-oxopentyl)-2-hydroxyphenyl)amino)-2-oxoethyl)amino)-4-oxobutyl)carbamoyl)-31, 39, 44-trioxo-2, 5, 8, 11, 14, 17, 20, 23, 26, 29-decaoxa	59%
tert-butyl (6S, 9S, 12S, 15S)-6-(3-methoxy-3-oxopropyl)-2, 2, 9, 12, 15-pentamethyl-4, 7, 10, 13-tetraoxo-3-oxa-5, 8, 11, 14-tetraazahexadecan-16-oate	100%
tert-butyl ((S)-37-(((benzyloxy)carbonyl)amino)-31-oxo-2,5,8,11,14,17,20,23,26,29-decaoxa-32-azaoctatriacontan-38-oyl)-L-alanyl-L-alanyl-L-alaninate	81% yield
tert-butyl ((S)-37-(((benzyloxy)carbonyl)amino)-31-oxo-2,5,8,11,14,17,20,23,26,29-decaoxa-32-azaoctatriacontan-38-oyl)-L-alanyl-L-alanyl-L-alanyl-L-alaninate	57% yield
tert-butyl ((S)-37-(((benzyloxy)carbonyl)amino)-31-oxo-2,5,8,11,14,17,20,23,26,29-decaoxa-32-azaoctatriacontan-38-oyl)glycylglycyl-L-alaninate	58% yield
tert-butyl ((S)-37-(((benzyloxy)carbonyl)amino)-31-oxo-2,5,8,11,14,17,20,23,26,29-decaoxa-32-azaoctatriacontan-38-oyl)glycylglycyl-L-alanyl-L-alaninate	100% yield
tert-butyl ((benzyloxy)carbonyl)-L-alanyl-L-alanyl-L-alanyl-L-alaninate	100% yield
tert-butyl ((benzyloxy)carbonyl)glycylglycylglycylglycinate	80% yield
tert-butyl (R)-5-(3-((37S,40S,43S)-37-(((benzyloxy)carbonyl)amino)-40-isopropyl-43-methyl-31,38,41-trioxo-2,5,8,11,14,17,20,23,26,29-decaoxa-32,39,42-triazatetratetracontan-44-amido)-4-hydroxyphenyl)-4-((tert-butoxycarbonyl)amino)pentanoate	93% yield
tert-butyl (S)-(S)-(37-(4-(2, 5-dioxo-2, 5-dihydro-1H-pyrrol-1-yl)butanamido)-31, 38-dioxo-2, 5, 8, 11, 14, 17, 20, 23, 26, 29-decaoxa-32, 39-diazatritetracontan-43-oyl)glycylglycinate	83%
tert-butyl (S)-(S)-(S)-(37-(((benzyloxy)carbonyl)amino)-31-oxo-2,5,8,11,14,17,20,23,26,29-decaoxa-32-azaoctatriacontan-38-oyl)glycylglycylglycinate	65% yield
tert-butyl (S)-(S)-(S)-(S)-(37-(((benzyloxy)carbonyl)amino)-31-oxo-2,5,8,11,14,17,20,23,26,29-decaoxa-32-azaoctatriacontan-38-oyl)glycylglycylglycylglycinate	79% yield

same assay, conditions: late stage modification step

Substance	step yield
bis(perfluorophenyl) (11S,19S,20S,28S)-19,20-bis(2,5-dioxo-2,5-dihydro-1H-pyrrol-1-yl)-4,7,10,13,18,21,26,29,32,35-decaoxo-11,28-bis(31-oxo-2,5,8,11,14,17,20,23,26,29-decaoxa-32-azahexatriacontan-36-yl)-3,6,9,12,17,22,27,30,33,36-decaazaoctatriacontanedioate	99%
tert-butyl ((S)-37-(4-(2, 5-dioxo-2, 5-dihydro-1H-pyrrol-1-yl)butanamido)-31-oxo-2, 5, 8, 11, 14, 17, 20, 23, 26, 29-decaoxa-32-azaoctatriacontan-38-oyl)-L-alanyl-L-alanyl-L-alaninate	94% yield
tert-butyl ((S)-37-amino-31-oxo-2,5,8,11,14,17,20,23,26,29-decaoxa-32-azaoctatriacontan-38-oyl)-L-alanyl-L-alanyl-L-alaninate	100% yield
tert-butyl ((S)-37-amino-31-oxo-2,5,8,11,14,17,20,23,26,29-decaoxa-32-azaoctatriacontan-38-oyl)-L-alanyl-L-alanyl-L-alanyl-L-alaninate	100% yield
tert-butyl ((S)-37-amino-31-oxo-2,5,8,11,14,17,20,23, 26,29-decaoxa-32-azaoctatriacontan-38-oyl)glycylglycyl-L-alanyl-L-alaninate	74% yield
tert-butyl (R)-5-(3-((37S,40S,43S)-37-amino-40-isopropyl-43-methyl-31,38,41-trioxo-2,5,8,11,14,17,20,23,26,29-decaoxa-32,39,42-triazatetratetracontan-44-amido)-4-hydroxyphenyl)-4-((tert-butoxycarbonyl)amino)pentanoate	93% yield
tert-butyl (R)-5-(3-((37S, 40S, 43S)-37-amino-40-isopropyl-43-methyl-31, 38, 41-trioxo-2, 5, 8, 11, 14, 17, 20, 23, 26, 29-decaoxa-32, 39, 42-triazatetratetracontan-44-amido)-4-hydroxyphenyl)-4-((tert-butoxycarbonyl)amino)pentanoate	93%
tert-butyl (S)-(S)-(37-(4-(2, 5-dioxo-2, 5-dihydro-1H-pyrrol-1-yl)butanamido)-31, 38-dioxo-2, 5, 8, 11, 14, 17, 20, 23, 26, 29-decaoxa-32, 39-diazatritetracontan-43-oyl)glycylglycinate	100%
tert-butyl (S)-(S)-(S)-(37-(4-(2, 5-dioxo-2, 5-dihydro-1H-pyrrol-1-yl)butanamido)-31, 38-dioxo-2, 5, 8, 11, 14, 17, 20, 23, 26, 29-decaoxa-32, 39-diazatritetracontan-43-oyl)glycylglycylglycinate	95%
tert-butyl (S)-(S)-(S)-(37-amino-31-oxo-2,5,8,11,14,17,20,23,26,29-decaoxa-32-azaoctatriacontan-38-oyl)glycylglycylglycinate	100% yield
tert-butyl (S)-(S)-(S)-(S)-(37-amino-31-oxo-2,5,8,11,14,17,20,23,26,29-decaoxa-32-azaoctatriacontan-38-oyl)glycylglycylglycylglycinate	100% yield
tert-butyl L-alanyl-L-alanyl-L-alanyl-L-alaninate	82% yield
tert-butyl glycylglycylglycylglycinate	99% yield
